Measured values as given in publication doi:10.1101/099093.
No constants are given. Whether binding was seen depends on the method and setting. Binding seen in cells or lysates may run through a third protein. Some results given as binding are weak or reduced against the parent protein; the word gives no strength.

Protein sequences, listed by entry. Tags and fused reporters are not part of them. Residues count along the entry.
UniProt Q99K10, residues 46-843: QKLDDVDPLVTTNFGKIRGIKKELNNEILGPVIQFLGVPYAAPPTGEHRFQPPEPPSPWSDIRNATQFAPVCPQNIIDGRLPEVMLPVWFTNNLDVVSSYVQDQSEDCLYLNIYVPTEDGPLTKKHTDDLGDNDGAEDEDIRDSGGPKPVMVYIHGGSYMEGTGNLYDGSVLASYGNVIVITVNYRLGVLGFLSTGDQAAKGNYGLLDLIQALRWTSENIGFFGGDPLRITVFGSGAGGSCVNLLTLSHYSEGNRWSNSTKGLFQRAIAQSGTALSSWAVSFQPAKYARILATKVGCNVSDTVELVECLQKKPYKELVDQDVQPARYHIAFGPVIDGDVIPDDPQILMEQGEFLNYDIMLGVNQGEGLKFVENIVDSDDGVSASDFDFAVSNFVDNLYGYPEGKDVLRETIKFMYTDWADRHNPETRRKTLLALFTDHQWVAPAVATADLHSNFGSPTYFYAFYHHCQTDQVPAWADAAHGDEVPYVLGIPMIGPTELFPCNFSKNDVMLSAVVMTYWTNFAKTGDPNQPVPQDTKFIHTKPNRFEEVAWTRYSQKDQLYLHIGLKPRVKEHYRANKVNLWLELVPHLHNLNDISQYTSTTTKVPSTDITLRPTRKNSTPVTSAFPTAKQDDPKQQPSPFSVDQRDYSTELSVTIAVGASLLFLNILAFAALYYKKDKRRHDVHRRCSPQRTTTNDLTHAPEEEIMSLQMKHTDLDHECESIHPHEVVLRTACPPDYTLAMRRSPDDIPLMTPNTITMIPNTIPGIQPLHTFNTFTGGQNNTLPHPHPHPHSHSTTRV
UniProt P0DI97, residues 47-468: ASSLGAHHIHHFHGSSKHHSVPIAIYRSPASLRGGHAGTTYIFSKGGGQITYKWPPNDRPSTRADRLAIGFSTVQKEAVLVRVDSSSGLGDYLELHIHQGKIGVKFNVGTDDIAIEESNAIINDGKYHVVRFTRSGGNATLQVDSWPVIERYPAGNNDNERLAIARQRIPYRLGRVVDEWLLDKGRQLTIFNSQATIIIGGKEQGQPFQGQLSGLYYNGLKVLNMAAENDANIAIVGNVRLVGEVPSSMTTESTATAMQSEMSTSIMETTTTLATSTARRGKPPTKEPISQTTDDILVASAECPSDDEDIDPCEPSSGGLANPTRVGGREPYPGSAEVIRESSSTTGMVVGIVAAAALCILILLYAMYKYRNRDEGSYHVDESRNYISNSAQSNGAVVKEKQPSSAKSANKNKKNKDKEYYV

Biological target: HA-NLGN1AB (UniProt Q99K10)
Test: proximity ligation

binding: binds
Substance: MYC-NRXN1B (from UniProt P0DI97 47-468)
